Measured values as given in article PMC12518127.
Results are given in words; binding and its absence hold for the method and conditions named. Binding seen in cells or lysates may run through a third protein. Some results given as binding are weak or reduced against the parent protein; the word gives no strength. For some assays here: Sequences can lack the tags named with a protein.

Key:
mCherry-tagged K14 = mCherry-tagged K14 (UniProt P02533); assay: co-IP; IP with anti-mCherry antibody from lysates of UM-UC5 and UM-UC14 cells expressing K14-mCherry, immunoblot; control cells lacking K14-mCherry
[1] = target: T1, mCherry-tagged K14, P02533; assay: as above; conditions: remark: other sources report otherwise
T1 chain: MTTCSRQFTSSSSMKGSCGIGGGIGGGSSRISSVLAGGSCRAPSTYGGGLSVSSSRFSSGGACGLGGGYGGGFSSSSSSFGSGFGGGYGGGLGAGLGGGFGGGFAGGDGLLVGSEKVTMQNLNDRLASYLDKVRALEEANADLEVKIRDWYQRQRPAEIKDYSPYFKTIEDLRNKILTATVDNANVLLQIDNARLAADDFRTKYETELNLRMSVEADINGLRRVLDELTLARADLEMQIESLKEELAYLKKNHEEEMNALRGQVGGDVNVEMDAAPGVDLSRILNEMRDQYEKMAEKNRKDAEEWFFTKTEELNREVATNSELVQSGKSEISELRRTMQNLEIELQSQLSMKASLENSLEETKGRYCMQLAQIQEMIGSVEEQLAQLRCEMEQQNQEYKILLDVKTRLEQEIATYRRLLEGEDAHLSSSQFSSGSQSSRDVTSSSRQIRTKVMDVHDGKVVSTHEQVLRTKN

B1: Tripartite Motif-containing protein 29 (TRIM29) (protein, UniProt Q14134 1-588)
chain: MEAADASRSNGSSPEARDARSPSGPSGSLENGTKADGKDAKTTNGHGGEAAEGKSLGSALKPGEGRSALFAGNEWRRPIIQFVESGDDKNSNYFSMDSMEGKRSPYAGLQLGAAKKPPVTFAEKGELRKSIFSESRKPTVSIMEPGETRRNSYPRADTGLFSRSKSGSEEVLCDSCIGNKQKAVKSCLVCQASFCELHLKPHLEGAAFRDHQLLEPIRDFEARKCPVHGKTMELFCQTDQTCICYLCMFQEHKNHSTVTVEEAKAEKETELSLQKEQLQLKIIEIEDEAEKWQKEKDRIKSFTTNEKAILEQNFRDLVRDLEKQKEEVRAALEQREQDAVDQVKVIMDALDERAKVLHEDKQTREQLHSISDSVLFLQEFGALMSNYSLPPPLPTYHVLLEGEGLGQSLGNFKDDLLNVCMRHVEKMCKADLSRNFIERNHMENGGDHRYVNNYTNSFGGEWSAPDTMKRYSMYLTPKGGVRTSYQPSSPGRFTKETTQKNFNNLYGTKGNYTSRVWEYSSSIQNSDNDLPVVQGSSSFSLKGYPSLMRSQSPKAQPQTWKSGKQTMLSHYRPFYVNKGNGIGSNEAP
In the case of B1, the binding (mCherry-tagged K14) is reported as “binds”.

B2: FAM83H, Q6ZRV2 1-1179 (protein)
chain: MARRSQSSSQGDNPLAPGYLPPHYKEYYRLAVDALAEGGSEAYSRFLATEGAPDFLCPEELEHVSRHLRPPQYVTREPPEGSLLDVDMDGSSGTYWPVNSDQAVPELDLGWPLTFGFQGTEVTTLVQPPPPDSPSIKDEARRMIRSAQQVVAVVMDMFTDVDLLSEVLEAAARRVPVYILLDEMNAQHFLDMADKCRVNLQHVDFLRVRTVAGPTYYCRTGKSFKGHVKEKFLLVDCAVVMSGSYSFMWSFEKIHRSLAHVFQGELVSSFDEEFRILFAQSEPLVPSAAALARMDAYALAPYAGAGPLVGVPGVGAPTPFSFPKRAHLLFPPPREEGLGFPSFLDPDRHFLSAFRREEPPRMPGGALEPHAGLRPLSRRLEAEAGPAGELAGARGFFQARHLEMDAFKRHSFATEGAGAVENFAAARQVSRQTFLSHGDDFRFQTSHFHRDQLYQQQYQWDPQLTPARPQGLFEKLRGGRAGFADPDDFTLGAGPRFPELGPDGHQRLDYVPSSASREVRHGSDPAFAPGPRGLEPSGAPRPNLTQRFPCQAAARPGPDPAPEAEPERRGGPEGRAGLRRWRLASYLSGCHGEDGGDDGLPAPMEAEAYEDDVLAPGGRAPAGDLLPSAFRVPAAFPTKVPVPGPGSGGNGPEREGPEEPGLAKQDSFRSRLNPLVQRSSRLRSSLIFSTSQAEGAAGAAAATEKVQLLHKEQTVSETLGPGGEAVRSAASTKVAELLEKYKGPARDPGGGAGAITVASHSKAVVSQAWREEVAAPGAVGGERRSLESCLLDLRDSFAQQLHQEAERQPGAASLTAAQLLDTLGRSGSDRLPSRFLSAQSHSTSPQGLDSPLPLEGSGAHQVLHNESKGSPTSAYPERKGSPTPGFSTRRGSPTTGFIEQKGSPTSAYPERRGSPVPPVPERRSSPVPPVPERRGSLTLTISGESPKAGPAEEGPSGPMEVLRKGSLRLRQLLSPKGERRMEDEGGFPVPQENGQPESPRRLSLGQGDSTEAATEERGPRARLSSATANALYSSNLRDDTKAILEQISAHGQKHRAVPAPSPGPTHNSPELGRPPAAGVLAPDMSDKDKCSAIFRSDSLGTQGRLSRTLPASAEERDRLLRRMESMRKEKRVYSRFEVFCKKEEASSPGAGEGPAEEGTRDSKVGKFVPKILGTFKSKK
In the case of B2, the binding [1] is reported as “no binding”.
